Measurements from “University of Dundee, Small-Polar-MMV Screening Library” (2021), ChEMBL document CHEMBL3988442.

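Assay of Toxoplasma gondii numbers, read through their beta-galactosidase reporter with a colour substrate. Concentration: 50 µM. The record gives no direction; the compounds picked for IC50 retests had high values, so higher reads as fewer parasites. Size under these conditions: about 18,000 compounds, about 170 of them at 50% or above in at least one test.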

The filed quantity is “Percent Effect” (%).
The record does not define 0% and 100%; most values in the screen are far below 50% and negative numbers occur (in some assays of this library far below -100).
The compounds are a random part of those screened.

With O=C(C1CCCO1)N1CCOc2ccccc2C1 (centres undefined) the screen gave -1.041%.
With Cc1c[nH]c(CN2CCCC2c2nc(C)n[nH]2)n1 (centres undefined) the screen gave -4.731%.
With COC(=O)CCN1CCN(c2cccc(OC)c2)CC1 the screen gave 12.39%.
With COCCC(=O)N1CCC(Nc2ncccc2Br)CC1 the screen gave 4.401%.
With CN1CCC(C)(c2nc(C3CCOC3)no2)CC1 (centres undefined) the screen gave -7.078%.
With Cn1cccc1CN1CC(O)(CC#N)C1 the screen gave -20.86%.
With CCC[C@H]1CN(C(=O)Cc2c[nH]c(=O)[nH]c2=O)C[C@@H]1N the screen gave -4.379%.
With Cc1ccc2oc(CN)cc2c1 the screen gave 7.384%.
With CNCc1ncon1 the screen gave -1.749%.
With c1cc(NCC2CCCO2)cnn1 (centres undefined) the screen gave -17.75%.
With CNc1nnc(SCC(=O)N2CCCCCC2)s1 the screen gave -13.01%.
With O=C(NCCc1cn2ccsc2n1)C1CCCO1 (centres undefined) the screen gave -18%.
With O=C(NCCc1ccsc1)NC1CCCCNC1=O (centres undefined) the screen gave -1.647%.
With COc1cnc(C(=O)NCc2ccccc2F)cc1O the screen gave 1.357%.
With CCc1nnsc1C(=O)Nc1nnc(C)s1 the screen gave -23.86%.
With N#Cc1ccccc1NCc1cccnc1 the screen gave -1.144%.
With O=C(NCC1(CO)COC1)C1=Cc2ccccc2OC1 the screen gave 11.11%.
With CN(C)C(=O)Nc1ccccc1OC(=O)N(C)C the screen gave 2.246%.
With COc1cc(CCN)ccc1Cl the screen gave 11.41%.
With COc1ccc(CC(=O)N2CCOCC2)cc1F the screen gave 5.492%.
With NC(=O)[C@@H]1CCCN1 the screen gave -9.649%.
With NC(=O)C1CCCN(C(=O)c2sccc2Br)C1 (centres undefined) the screen gave 0.07762%.
With Cn1c(=O)c2nc(N3CCCCC3)[nH]c2n(C)c1=O the screen gave 1.639%.
With CNC1CCN(Cc2ccccc2)C1=O (centres undefined) the screen gave 0.8842%.
With CC(C)(N)c1ccc(F)c(F)c1 the screen gave 1.185%.
With CN(CCCS(C)(=O)=O)C(=O)c1cccc(F)c1Cl the screen gave -4.188%.
With CCOCC(=O)NCC(O)c1cccc(C(F)(F)F)c1 (centres undefined) the screen gave 6.412%.
With Cn1ncc2c(N3CCCC3)nc(NCCO)nc21 the screen gave 9.284%.
With CN[C@@H]1COc2ccccc2[C@H](O)C1 the screen gave 49.17%.
With CCCNC(=O)C1CCN(c2ncccc2C#N)CC1 the screen gave 2.814%.
With Brc1cnn(C2CCNCC2)c1 the screen gave -5.513%.
With COCC(C)NCCNc1cc(C)ccn1 (centres undefined) the screen gave 0.2057%.
With CCCC1C=CCN1Cc1nc(C(=O)NC)no1 (centres undefined) the screen gave 4.172%.
With CCn1ncnc1CN1CCCC1c1nc(C)n[nH]1 (centres undefined) the screen gave -4.805%.
With CC(OC(=O)c1nn(C)c(=O)c2ccccc12)C(N)=O (centres undefined) the screen gave -4.503%.
With CN(C)Cc1ccccc1CNC(=O)c1cnn(C)c1 the screen gave -18.65%.
With CN(C)c1nc(N)nc(COC(=O)c2ccsc2)n1 the screen gave -9.495%.
With CCOC(=O)N1CCN(C(=O)c2ccco2)CC1 the screen gave 9.256%.

For reference, 2 entries once more:

* Cc1ccc2oc(CN)cc2c1 | 7.384%
* O=C(C1CCCO1)N1CCOc2ccccc2C1 (centres undefined) | -1.041%